The other results are listed elsewhere or left out.
Legend:
Test in all cases: log2 fold change, soluble protein after heating vs DMSO (PISA); higher = thermal stabilisation; K562 lysate, 10 uM; active = over 0.2 and 3.5 SD of the protein, either way, in both replicates (recomputed)
[1] = compound: C1=CC2=NC=CN=C2C=C1/C=C/3\C(=O)NC(=O)S3
How it was run: (§1)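 A 30 min treatment with 10 μM compound was applied to crude K562 extract at 1 mg/mL protein in PBS pH 7.4 with 1 mM MgCl2. Heating for 3 min spanned 48°C-58°C, after which aliquots were pooled, adjusted to 0.5% NP-40 at 4°C and spun at 21,000xg for 90 min. TMTpro 16plex LC-MS/MS of the supernatant, with channel sums equalised, gave values recorded as log-two fold change in thermal stability against solvent controls, from duplicates.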

Chains of the proteins cited; added tags and fusions are not shown. Lines headed by an entry give the natural chain unless they say otherwise; changes in a name come on top.
UniProt Q14C86: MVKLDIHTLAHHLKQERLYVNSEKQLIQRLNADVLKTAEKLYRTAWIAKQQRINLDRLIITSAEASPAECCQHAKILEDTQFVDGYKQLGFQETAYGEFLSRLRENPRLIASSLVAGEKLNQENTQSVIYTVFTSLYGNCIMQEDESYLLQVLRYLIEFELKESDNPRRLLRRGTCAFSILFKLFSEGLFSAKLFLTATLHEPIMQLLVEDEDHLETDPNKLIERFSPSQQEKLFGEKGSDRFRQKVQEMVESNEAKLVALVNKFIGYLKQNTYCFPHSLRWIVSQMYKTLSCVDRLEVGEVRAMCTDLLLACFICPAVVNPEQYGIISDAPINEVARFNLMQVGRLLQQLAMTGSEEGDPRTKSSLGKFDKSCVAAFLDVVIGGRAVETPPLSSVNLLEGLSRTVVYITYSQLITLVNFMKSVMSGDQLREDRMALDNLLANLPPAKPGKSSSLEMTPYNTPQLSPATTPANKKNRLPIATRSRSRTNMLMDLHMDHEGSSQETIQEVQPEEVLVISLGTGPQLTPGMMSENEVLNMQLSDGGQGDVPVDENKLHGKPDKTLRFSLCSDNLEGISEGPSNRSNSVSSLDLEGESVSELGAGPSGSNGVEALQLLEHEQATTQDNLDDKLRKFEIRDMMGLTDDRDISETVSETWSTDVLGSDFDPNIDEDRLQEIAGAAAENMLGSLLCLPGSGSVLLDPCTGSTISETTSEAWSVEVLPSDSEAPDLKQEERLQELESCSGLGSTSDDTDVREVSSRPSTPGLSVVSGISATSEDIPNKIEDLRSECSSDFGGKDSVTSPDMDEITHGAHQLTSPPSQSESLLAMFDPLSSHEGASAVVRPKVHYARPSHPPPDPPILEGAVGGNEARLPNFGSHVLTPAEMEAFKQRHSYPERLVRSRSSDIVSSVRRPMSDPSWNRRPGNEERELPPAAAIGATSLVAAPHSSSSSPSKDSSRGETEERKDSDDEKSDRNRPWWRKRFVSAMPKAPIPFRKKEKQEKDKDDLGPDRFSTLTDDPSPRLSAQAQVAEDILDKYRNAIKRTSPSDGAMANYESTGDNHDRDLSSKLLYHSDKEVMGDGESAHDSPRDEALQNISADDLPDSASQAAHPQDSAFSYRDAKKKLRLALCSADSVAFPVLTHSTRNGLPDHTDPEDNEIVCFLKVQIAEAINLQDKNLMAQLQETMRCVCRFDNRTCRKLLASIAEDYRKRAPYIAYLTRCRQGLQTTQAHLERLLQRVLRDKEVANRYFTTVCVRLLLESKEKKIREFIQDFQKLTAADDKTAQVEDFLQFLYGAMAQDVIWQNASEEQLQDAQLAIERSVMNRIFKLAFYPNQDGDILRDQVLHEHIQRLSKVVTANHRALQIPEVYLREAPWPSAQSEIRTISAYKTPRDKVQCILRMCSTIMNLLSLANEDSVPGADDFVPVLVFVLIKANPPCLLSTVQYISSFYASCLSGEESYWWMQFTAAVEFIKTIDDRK
UniProt Q9UN86: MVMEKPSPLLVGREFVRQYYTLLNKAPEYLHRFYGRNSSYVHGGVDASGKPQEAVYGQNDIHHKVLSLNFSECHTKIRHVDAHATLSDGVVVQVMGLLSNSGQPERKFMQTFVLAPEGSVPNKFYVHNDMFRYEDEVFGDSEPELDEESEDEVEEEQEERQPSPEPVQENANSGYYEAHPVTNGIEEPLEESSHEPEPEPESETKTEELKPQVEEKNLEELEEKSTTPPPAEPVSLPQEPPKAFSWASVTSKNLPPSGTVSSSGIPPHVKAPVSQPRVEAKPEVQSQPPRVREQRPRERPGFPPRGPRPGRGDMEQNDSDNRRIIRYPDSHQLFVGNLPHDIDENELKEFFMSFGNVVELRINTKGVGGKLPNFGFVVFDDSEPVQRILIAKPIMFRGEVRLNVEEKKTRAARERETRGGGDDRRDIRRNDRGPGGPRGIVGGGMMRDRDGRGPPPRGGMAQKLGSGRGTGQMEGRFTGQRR
UniProt O75879: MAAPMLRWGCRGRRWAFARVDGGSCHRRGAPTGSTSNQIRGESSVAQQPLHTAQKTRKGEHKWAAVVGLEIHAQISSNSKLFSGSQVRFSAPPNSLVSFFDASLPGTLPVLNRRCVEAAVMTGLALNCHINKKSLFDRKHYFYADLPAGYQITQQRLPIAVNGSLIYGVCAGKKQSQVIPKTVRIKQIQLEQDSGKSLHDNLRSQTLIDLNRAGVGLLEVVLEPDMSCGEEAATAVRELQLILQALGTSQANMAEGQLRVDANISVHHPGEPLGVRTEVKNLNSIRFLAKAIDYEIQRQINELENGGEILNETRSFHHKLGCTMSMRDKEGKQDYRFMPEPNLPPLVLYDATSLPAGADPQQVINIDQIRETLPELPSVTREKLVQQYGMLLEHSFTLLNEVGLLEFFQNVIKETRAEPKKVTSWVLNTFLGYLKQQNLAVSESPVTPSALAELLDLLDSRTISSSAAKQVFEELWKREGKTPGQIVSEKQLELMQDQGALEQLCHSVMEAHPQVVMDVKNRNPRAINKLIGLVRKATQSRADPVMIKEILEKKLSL
UniProt P98177: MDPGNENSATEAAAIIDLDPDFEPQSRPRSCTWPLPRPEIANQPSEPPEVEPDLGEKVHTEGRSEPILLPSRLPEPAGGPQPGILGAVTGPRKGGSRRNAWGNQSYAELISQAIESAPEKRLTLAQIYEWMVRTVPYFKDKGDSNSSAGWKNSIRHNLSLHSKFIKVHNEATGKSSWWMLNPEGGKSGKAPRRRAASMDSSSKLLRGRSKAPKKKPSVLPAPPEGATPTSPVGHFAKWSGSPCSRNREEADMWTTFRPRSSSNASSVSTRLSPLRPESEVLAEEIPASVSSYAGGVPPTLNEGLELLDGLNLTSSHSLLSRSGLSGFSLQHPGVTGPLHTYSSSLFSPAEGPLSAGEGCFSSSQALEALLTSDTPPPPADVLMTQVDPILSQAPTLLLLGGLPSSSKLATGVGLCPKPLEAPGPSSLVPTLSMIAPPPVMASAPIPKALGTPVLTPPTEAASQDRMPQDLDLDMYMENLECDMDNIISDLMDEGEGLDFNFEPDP
UniProt Q9NXC2: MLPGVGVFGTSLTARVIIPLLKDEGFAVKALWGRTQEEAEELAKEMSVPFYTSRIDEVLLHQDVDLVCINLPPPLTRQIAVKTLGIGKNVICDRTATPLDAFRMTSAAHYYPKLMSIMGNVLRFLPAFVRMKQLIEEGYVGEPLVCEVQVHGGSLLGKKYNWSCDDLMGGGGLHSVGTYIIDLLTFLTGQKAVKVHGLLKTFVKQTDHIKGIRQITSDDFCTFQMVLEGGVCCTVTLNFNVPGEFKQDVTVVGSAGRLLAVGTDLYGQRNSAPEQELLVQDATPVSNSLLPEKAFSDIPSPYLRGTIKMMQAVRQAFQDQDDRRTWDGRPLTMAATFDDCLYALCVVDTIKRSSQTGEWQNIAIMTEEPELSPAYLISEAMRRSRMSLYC
UniProt Q13467, whole entry, looked up: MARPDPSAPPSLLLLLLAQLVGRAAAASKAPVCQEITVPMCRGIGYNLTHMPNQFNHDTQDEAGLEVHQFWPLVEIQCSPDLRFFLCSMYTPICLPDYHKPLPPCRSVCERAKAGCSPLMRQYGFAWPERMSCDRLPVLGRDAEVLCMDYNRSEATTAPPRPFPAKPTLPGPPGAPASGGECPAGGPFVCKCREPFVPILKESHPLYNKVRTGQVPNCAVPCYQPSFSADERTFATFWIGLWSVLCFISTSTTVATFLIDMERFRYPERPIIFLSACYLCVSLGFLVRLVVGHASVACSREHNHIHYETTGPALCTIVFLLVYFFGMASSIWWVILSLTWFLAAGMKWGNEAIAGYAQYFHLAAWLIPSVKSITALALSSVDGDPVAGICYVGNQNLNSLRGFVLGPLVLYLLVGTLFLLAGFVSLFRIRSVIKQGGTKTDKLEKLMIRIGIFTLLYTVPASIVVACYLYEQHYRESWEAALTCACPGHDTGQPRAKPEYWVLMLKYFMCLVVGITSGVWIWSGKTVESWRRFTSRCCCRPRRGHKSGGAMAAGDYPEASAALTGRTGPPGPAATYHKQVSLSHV
UniProt Q8WTR4: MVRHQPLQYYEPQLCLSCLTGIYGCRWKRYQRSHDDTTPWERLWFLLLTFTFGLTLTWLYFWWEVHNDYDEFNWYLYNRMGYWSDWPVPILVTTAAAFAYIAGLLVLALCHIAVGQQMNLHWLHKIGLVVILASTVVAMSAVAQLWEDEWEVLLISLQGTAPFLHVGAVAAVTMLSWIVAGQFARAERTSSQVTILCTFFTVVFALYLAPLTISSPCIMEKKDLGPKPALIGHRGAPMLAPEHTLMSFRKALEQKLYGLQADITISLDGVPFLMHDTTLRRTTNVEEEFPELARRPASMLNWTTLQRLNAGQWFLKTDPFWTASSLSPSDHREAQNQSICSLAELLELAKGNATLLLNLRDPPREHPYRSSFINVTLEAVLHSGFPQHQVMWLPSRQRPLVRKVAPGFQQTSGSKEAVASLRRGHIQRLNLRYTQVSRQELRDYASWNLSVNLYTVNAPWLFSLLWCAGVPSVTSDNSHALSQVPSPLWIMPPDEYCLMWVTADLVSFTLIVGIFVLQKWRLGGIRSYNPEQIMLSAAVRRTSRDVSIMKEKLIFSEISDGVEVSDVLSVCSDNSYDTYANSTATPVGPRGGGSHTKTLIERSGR
UniProt Q9H840: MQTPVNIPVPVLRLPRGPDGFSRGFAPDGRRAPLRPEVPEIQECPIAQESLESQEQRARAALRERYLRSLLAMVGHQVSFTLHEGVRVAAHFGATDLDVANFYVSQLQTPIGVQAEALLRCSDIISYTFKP
FOXO3B, A0A2Z4LIS9, UniProt A0A2Z4LIS9, whole entry, looked up: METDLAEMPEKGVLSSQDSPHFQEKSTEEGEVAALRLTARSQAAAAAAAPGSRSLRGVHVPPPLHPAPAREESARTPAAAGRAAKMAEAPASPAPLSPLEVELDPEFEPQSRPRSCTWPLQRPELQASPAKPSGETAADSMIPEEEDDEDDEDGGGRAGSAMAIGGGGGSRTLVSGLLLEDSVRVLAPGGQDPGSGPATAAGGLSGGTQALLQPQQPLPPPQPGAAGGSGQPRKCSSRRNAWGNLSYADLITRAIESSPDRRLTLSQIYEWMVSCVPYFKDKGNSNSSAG

[2] = compound: C1=CC=C(C=C1)C2=NC(=C(N2)C3=CC=NC=C3)C4=CC(=C(C=C4)Cl)O
How it was run: as §1

[3] = compound: C1CCN(C1)C(=O)NC2=CC=CC(=C2)NC3=NC=C(C(=N3)NCCC4=CN=CN4)Br
How it was run: as §1

[4] = compound: C1CN(CCC1(CC2=CC=C(C=C2)Cl)N)C3=NC=NC4=C3C=CN4
How it was run: as §1

[5] = compound: C1COCCN1CCN2C3=CC=CC=C3N=C2NC(=O)C4=CC(=CC=C4)[N+](=O)[O-] [IRAK-1-4 Inhibitor I]
How it was run: as §1

[6] = compound: C=CC(=O)N1CCC[C@@H](n2nc(-c3ccc(Oc4ccccc4)cc3)c3c(N)ncnc32)C1 [ibrutinib]
How it was run: as §1

[7] = compound: CC(=O)c1cnc2ccc(-c3cc(Cl)c(O)c(Cl)c3)nc2c1N[C@H]1CC[C@H](CN(C)C)CC1
How it was run: as §1

[8] = compound: CC(C)(C)Cn1c(N)nc2ccc(-c3[nH]c(C(C)(C)C)nc3-c3ccc(F)cc3)nc21 [ralimetinib]
How it was run: as §1

[9] = compound: CC(C)(O)CC(=O)NCCn1ccc2ncnc(Nc3ccc(Oc4cccc(C(F)(F)F)c4)c(Cl)c3)c21
How it was run: as §1

[10] = compound: CC1=C(C=C(C=C1)NC(=O)C2=CC(=CC=C2)N(C)C)NC(=O)C3=CC=C(C=C3)O
How it was run: as §1

[11] = compound: CC1=CC=C(C=C1)SC2=C3C=C(SC3=CN=C2)C(=O)N
How it was run: as §1

[12] = compound: CC1=C(C2=C(C=C1)C(=O)C3=CC=CC=C3N2CCCN)C
How it was run: as §1

[13] = compound: CC1=C(C=C(C=C1)NC(=O)C2=CC(=CC=C2)C(C)(C)C#N)NC3=CC4=C(C=C3)N=CN(C4=O)C
How it was run: as §1

[14] = compound: C/C(=N\NC(=O)C1=CC(=CC=C1)S(=O)(=O)N2CCOCC2)/C3=C(C=CC(=C3)Cl)O
How it was run: as §1

[15] = compound: C1=CC2=C(C=CC(=C2)/C=C\3/C(=O)NC(=NCC4=CC=CS4)S3)N=C1
How it was run: as §1

[16] = compound: C1=CC=C2C(=C1)C3=NNC4=CC=CC(=C43)C2=O
How it was run: as §1

[17] = compound: CC1=C(C(CC(=O)N1)C2=CC=C(C=C2)C(F)(F)F)C(=O)NC3=C(C=C4C(=C3)C=NN4)F
How it was run: as §1

[18] = compound: C#Cc1cccc(Nc2ncnc3cc(OCCOC)c(OCCOC)cc23)c1 [erlotinib]
How it was run: as §1

[19] = compound: C1=CC(=CC=C1C2=NC3=C(N2)C=C(C=C3)C(=O)N)OC4=CC=C(C=C4)Cl
How it was run: as §1

[20] = compound: CC(C)C1=C2N=C(C=C(N2N=C1)NCC3=CC=CC=C3)NCCCCCCN
How it was run: as §1

Measured: log2 fold change

GAGE1 (UniProt Q13065)
inactive: [1] 0.126 | [2] 0.137 | [3] 0.029 | [4] 0.336 | [5] -0.003 | [6] -0.013 | [7] -0.016 | [8] 0.023 | [9] -0.16 | [10] -0.238 | [11] 0.02

GAPVD1 (UniProt Q14C86)
inactive: [1] -0.016 | [6] 0.086 | [7] 0.317 | [11] -0.666

G3BP2 isoform 2 (UniProt Q9UN86)
inactive: [7] 0 | [12] -0.264 | [13] -0.027 | [11] 0.043

GATB (UniProt O75879)
inactive: [14] 0.356 | [15] -0.107 | [2] -0.034 | [16] 0.037 | [5] -0.009 | [7] -0.144 | [8] 0.031 | [9] -0.019 | [17] -0.105 | [12] 0.05 | [10] 0.116 | [11] -0.025

FOXO4 (UniProt P98177)
inactive: [1] -0.108 | [6] -0.086

GFOD1 (UniProt Q9NXC2)
inactive: [18] -0.032 | [19] 0.081 | [2] -0.087 | [5] 0.316 | [7] -0.023 | [8] 0.26 | [9] -0.131 | [20] -0.118 | [10] -0.304 | [11] -0.188

Fetched one by one from the entries so far (2):
GATB (UniProt O75879)
inactive: [14] 0.356 | [15] -0.107 | [2] -0.034 | [16] 0.037 | [5] -0.009 | [7] -0.144 | [8] 0.031 | [9] -0.019 | [17] -0.105 | [12] 0.05 | [10] 0.116 | [11] -0.025

FOXO4 (UniProt P98177)
inactive: [1] -0.108 | [6] -0.086

(listing goes on)

FZD5 (UniProt Q13467)
inactive: [1] -0.074 | [6] 0.098 | [7] -0.16 | [12] -0.118 | [11] 0.101

GDPD5 (UniProt Q8WTR4)
inactive: [14] -0.04 | [15] -0.123 | [16] 0.026 | [13] 0.051

GEMIN7 (UniProt Q9H840)
inactive: [1] 0.087 | [2] 0.056 | [5] 0.015 | [6] -0.06 | [8] 0.121 | [9] -0.001 | [17] -0.01 | [13] 0.024 | [10] -0.011

FOXO3B, A0A2Z4LIS9
inactive: [14] -0.111 | [15] -0.072 | [16] 0.089 | [12] -0.079

— the supplement of paper PMC10849652
